{"source": "patent US9439876B2", "about": "“Method of treating microbial infections” (priority 2014, dated 2016)", "system": "Candida albicans wild type strain SN250", "test": "Screen for inhibition of Candida albicans lawn formation (halo) on solid serum (FBS agar) plates", "format": "cell-based", "conditions": "5 μl of 10 mM drug on fungal lawn, 25° C. and 37° C.", "protocol": "C. albicans was plated on solid YPD and serum plates, and 5 μl of each 10 mM drug was placed on top of the fungal lawn. The effect of exposure to each of the compounds from the library was assayed for its ability to inhibit C. albicans growth, as well as ability to form a halo within the fungal lawn. […] (FIG. 1A).\nMedia and Growth Conditions: C. albicans strains were cultured with 5 ml of YPD (1% yeast extract, 2% peptone, 2% dextrose, pH 6) medium at 30° C. overnight. Bacterial cells were cultured in LB (Luria-Bertani) medium consisting of 5 g Bacto-Tryptone, 2.5 g Bacto-Yeast Extract, 5 g NaCl and 7.5 g of 2% agar if preparing solid plates. The centrifuge tubes were incubated at 37° C. and left shaking overnight at 150 rpm. Fetal bovine serum was incorporated into agar. Fetal bovine serum was preheated in a water bath set at 65° C. […] The agar solution for the serum mixture consisted of 16 g agar, which was then brought up to 300 ml with nanopure water. The agar solution was then autoclaved at 120° C. for 45 minutes. The agar and serum mixtures were then amalgamated while in their isothermal states.\nHigh-throughput Screening Assay: The sensitivity of C. albicans against compounds was assessed by a high-throughput chemical screen. 200 μl of C. albicans overnight culture were spread onto petri dishes containing either YPD or fetal bovine serum. […]"}
{"smiles": "CC(C)(C)CC(C)(C)c1ccc(OCCOCC[N+](C)(C)Cc2ccccc2)cc1", "note": "[Methyl-benzethonium chloride]", "values": [{"measurement": "inhibition of C. albicans growth (halo formation) on serum plates", "result": "strongest inhibition"}]}
